Some results were stated once for a whole list of compounds, not compound by compound.
How the values were obtained:
[1] = target: T1, human Oxytocin-1 (hOT) receptor (Homo sapiens, UniProt P30559); assay: Determination of antagonist affinity at human Oxytocin-1 receptors using FLIPR (Assay 1); type: cell-based; settings: Assay 1, hOT FLIPR; statement in words
T1 construct: expressed in transfected cells
T1 sequence (P30559 1-389): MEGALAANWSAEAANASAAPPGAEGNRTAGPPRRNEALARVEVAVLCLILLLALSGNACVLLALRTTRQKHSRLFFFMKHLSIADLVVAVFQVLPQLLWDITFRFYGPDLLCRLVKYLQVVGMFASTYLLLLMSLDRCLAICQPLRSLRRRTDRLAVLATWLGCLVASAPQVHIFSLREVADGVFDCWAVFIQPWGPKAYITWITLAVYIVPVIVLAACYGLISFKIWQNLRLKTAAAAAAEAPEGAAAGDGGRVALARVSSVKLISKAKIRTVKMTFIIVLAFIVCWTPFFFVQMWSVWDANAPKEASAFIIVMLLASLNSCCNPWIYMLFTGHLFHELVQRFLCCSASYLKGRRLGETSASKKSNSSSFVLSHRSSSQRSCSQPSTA
Method: Determination of Antagonist Affinity at Human Oxytocin-1 Receptors Using FLIPR
Adherent Chinese Hamster Ovary (CHO) cells, stably expressing the recombinant human Oxytocin-1 (hOT) receptor, were maintained in culture in DMEM:F12 medium (Sigma, cat no D6421), supplemented with 10% heat inactivated foetal calf serum (Gibco/Invitrogen, cat. no. 01000-147), 2 mM L-glutamine (Gibco/Invitrogen, cat. no. 25030-024) and 0.2 mg/ml G418 (Gibco/Invitrogen, cat no. 10131-027). Cells were grown as monolayers under 95%:5% air:CO2 at 37° C. and passaged every 3-4 days using TrypLE™ Express (Gibco/Invitrogen, cat no. 12604-013).
Measurement of [Ca^2+]i Using the FLIPR™
CHO-hOT cells were seeded into black walled clear-base 384-well plates (Nunc) at a density of 10,000 cells per well in culture medium as described above and maintained overnight (95%:5% air:CO2 at 37° C.). After removal of culture medium, cells were incubated for 1 h at 37° C. in Tyrode's medium (NaCl, 145 mM; KCl, 2.5 mM; HEPES, 10 mM; Glucose, 10 mM; MgCl2, 1.2 mM; CaCl2, 1.5 mM) containing probenacid (0.7 mg/ml), the cytoplasmic calcium indicator, Fluo-4 (4 uM; Teflabs, USA) and the quenching agent Brilliant Black (250 uM; Molecular Devices, UK). Cells were then incubated for an additional 30 min at 37° C. with either buffer alone or buffer containing OT antagonist, before being placed into a FLIPR™ (Molecular Devices, UK) to monitor cell fluorescence (λex=488 nm, λEM=540 nm) before and after the addition of a submaximal concentration of oxytocin (EC80).
Functional responses using FLIPR were analysed using Activity Base Version 5.0.10. Data are reported as mean values, wherein number of times tested (n) is greater than or equal to 3.

[2] = Determination of in vitro intrinsic clearance in microsomes (Assay 3); type: in vitro ADME, human, cynomolgus monkey, dog, rat; settings: compound 0.5 uM, protein 0.5 mg/mL, 37° C., statement in words, species not separated

## CCC(CC)[C@@H]1C(=O)N[C@H](C2Cc3ccccc3C2)C(=O)N1[C@@H](C(=O)N1CCOCC1)c1coc(C)n1 [Example 9, (3R,6R)-3-(2,3-Dihydro-1H-inden-2-yl)-6-(1-ethylpropyl)-1-[(1R)-1-(2-methyl-1,3-oxazol-4-yl)-2-(4-morpholinyl)-2-oxoethyl]-2,5-piperazinedione]
[1]
  antagonist affinity compared with Comparator compounds X and Y: surprisingly improved antagonist affinity as compared with that of Comparator compound X and Comparator compound Y
[2]
  in vitro intrinsic clearance in microsomes compared with Comparator compounds X and Y: comparable in vitro intrinsic clearance in microsomes (Assay 3) to that of Comparator compounds X and Y

## CCC(CC)[C@@H]1C(=O)N[C@H](C2Cc3ccccc3C2)C(=O)N1[C@@H](C(=O)NC)c1ccc(C)nc1C [Example 3, (2R)-2-[(3R,6R)-3-(2,3-Dihydro-1H-inden-2-yl)-6-(1-ethylpropyl)-2,5-dioxo-1-piperazinyl]-2-(2,6-dimethyl-3-pyridinyl)-N-methylethanamide]
[1]
  antagonist affinity compared with Comparator compounds X and Y: surprisingly improved antagonist affinity as compared with that of Comparator compound X and Comparator compound Y
[2]
  in vitro intrinsic clearance in microsomes compared with Comparator compounds X and Y: comparable in vitro intrinsic clearance in microsomes (Assay 3) to that of Comparator compounds X and Y

## CCC(CC)[C@@H]1C(=O)N[C@H](C2Cc3ccccc3C2)C(=O)N1[C@@H](C(=O)N(C)C)c1ccc2c(cnn2C)c1 [Example 7, (2R)-2-[(3R,6R)-3-(2,3-Dihydro-1H-inden-2-yl)-6-(1-ethylpropyl)-2,5-dioxo-1-piperazinyl]-N,N-dimethyl-2-(1-methyl-1H-indazol-5-yl)ethanamide]
[1]
  antagonist affinity compared with Comparator compounds X and Y: surprisingly improved antagonist affinity as compared with that of Comparator compound X and Comparator compound Y

## CCC(CC)[C@@H]1C(=O)N[C@H](C2Cc3ccccc3C2)C(=O)N1[C@@H](C(=O)NC)c1ccc2c(cnn2C)c1 [Example 6, (2R)-2-[(3R,6R)-3-(2,3-Dihydro-1H-inden-2-yl)-6-(1-ethylpropyl)-2,5-dioxo-1-piperazinyl]-N-methyl-2-(1-methyl-1H-indazol-5-yl)acetamide]
[1]
  antagonist affinity compared with Comparator compounds X and Y: surprisingly improved antagonist affinity as compared with that of Comparator compound X and Comparator compound Y
[2]
  in vitro intrinsic clearance in microsomes compared with Comparator compounds X and Y: comparable in vitro intrinsic clearance in microsomes (Assay 3) to that of Comparator compounds X and Y

## CCC(CC)[C@@H]1C(=O)N[C@H](C2Cc3ccccc3C2)C(=O)N1[C@@H](C(=O)NC)c1ccc(C)nc1 [Example 1, (2R)-2-[(3R,6R)-3-(2,3-Dihydro-1H-inden-2-yl)-6-(1-ethylpropyl)-2,5-dioxo-1-piperazinyl]-N-methyl-2-(6-methyl-3-pyridinyl)ethanamide]
[1]
  antagonist affinity compared with Comparator compounds X and Y: surprisingly improved antagonist affinity as compared with that of Comparator compound X and Comparator compound Y
[2]
  in vitro intrinsic clearance in microsomes compared with Comparator compounds X and Y: comparable in vitro intrinsic clearance in microsomes (Assay 3) to that of Comparator compounds X and Y

## CCC(CC)[C@@H]1C(=O)N[C@H](C2Cc3ccccc3C2)C(=O)N1[C@@H](C(=O)N1CCOCC1)c1ccc2c(cnn2C)c1 [Example 8, (3R,6R)-3-(2,3-Dihydro-1H-inden-2-yl)-6-(1-ethylpropyl)-1-[(1R)-1-(1-methyl-1H-indazol-5-yl)-2-(4-morpholinyl)-2-oxoethyl]-2,5-piperazinedione]
[1]
  antagonist affinity compared with Comparator compounds X and Y: surprisingly improved antagonist affinity as compared with that of Comparator compound X and Comparator compound Y
[2]
  in vitro intrinsic clearance in microsomes compared with Comparator compounds X and Y: comparable in vitro intrinsic clearance in microsomes (Assay 3) to that of Comparator compounds X and Y

## CCC(CC)[C@@H]1C(=O)N[C@H](C2Cc3ccccc3C2)C(=O)N1[C@@H](C(=O)N1CCOCC1)c1ccc(C)nc1C [Example 5, (3R,6R)-3-(2,3-Dihydro-1H-inden-2-yl)-1-[(1R)-1-(2,6-dimethyl-3-pyridinyl)-2-(4-morpholinyl)-2-oxoethyl]-6-(1-ethylpropyl)-2,5-piperazinedione]
[1]
  antagonist affinity compared with Comparator compounds X and Y: surprisingly improved antagonist affinity as compared with that of Comparator compound X and Comparator compound Y
[2]
  in vitro intrinsic clearance in microsomes compared with Comparator compounds X and Y: comparable in vitro intrinsic clearance in microsomes (Assay 3) to that of Comparator compounds X and Y

## CCC(CC)[C@@H]1C(=O)N[C@H](C2Cc3ccccc3C2)C(=O)N1[C@@H](C(=O)N(C)C)c1ccc(C)nc1C [Example 4, (2R)-2-[(3R,6R)-3-(2,3-Dihydro-1H-inden-2-yl)-6-(1-ethylpropyl)-2,5-dioxo-1-piperazinyl]-2-(2,6-dimethyl-3-pyridinyl)-N,N-dimethylethanamide]
[2]
  in vitro intrinsic clearance in microsomes compared with Comparator compounds X and Y: comparable in vitro intrinsic clearance in microsomes (Assay 3) to that of Comparator compounds X and Y

## CCC(CC)[C@@H]1C(=O)N[C@H](C2Cc3ccccc3C2)C(=O)N1[C@@H](C(=O)N(C)C)c1ccc(C)nc1 [Example 2, (2R)-2-[(3R,6R)-3-(2,3-Dihydro-1H-inden-2-yl)-6-(1-ethylpropyl)-2,5-dioxo-1-piperazinyl]-N,N-dimethyl-2-(6-methyl-3-pyridinyl)ethanamide]
[1]
  antagonist affinity compared with Comparator compounds X and Y: surprisingly improved antagonist affinity as compared with that of Comparator compound X and Comparator compound Y
[2]
  in vitro intrinsic clearance in microsomes compared with Comparator compounds X and Y: comparable in vitro intrinsic clearance in microsomes (Assay 3) to that of Comparator compounds X and Y

— patent US20070185162A1, “Substituted diketopiperazines as oxytocin receptor antagonists” (Koninklijke Philips Electronics, N.V., priority 2004, published 2007)
